This passage reports survivor count and T/C results from PubChem BioAssay AID256 (DTP/NCI, 2004).

The list is a part of this screen's results and no random one: it is rich in T/C values a quarter to a half above the control, in often repeated tests (any T/C) and in doses without a T/C. Other doses and runs of a compound stand elsewhere. T/C: endpoint of the treated group in % of that of the vehicle group. Some entries give survivors of the animals treated and no T/C: the source holds a T/C of zero for them, seemingly a mark for toxic or unscored doses. Some survivor counts are full or nearly so, which does not show that the dose was tolerated: survival well below the control is almost never listed, so the zero probably covers shortened survival too. Survivors were counted at the toxicity check, usually on the fifth day, unless a day is given; later deaths do not show. Schedule codes are those of the source, taken here to give the interval after Q, in days (D) or hours (H), and the number of doses after X. Some entries were tested several times; their values stand side by side, smallest first. Where survival is the endpoint, this PubChem deposit counts one and a half times the control or more as active, and values a quarter to a half above the control carry no call in these data; other NCI protocols may use other cut-offs. Some T/C values carry the count of animals alive at the toxicity check (mostly the fifth day); without a count, all were alive then. Some schedules carry Z or #; the key to these is not given.

For the experiment, the system named is CD2F1 mice, L1210 leukemia ip, survival T/C. Briefly: NCI In Vivo Anticancer Drug Screen. Data for tumor model L1210 Leukemia (intraperitoneal) in CD2F1 (CDF1) mice. Particulars: higher T/C = longer survival. The gist of the method:
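Vehicle-treated tumor-bearing mice served as controls (C) for compound-treated mice (T). Reported figure is T divided by C.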

Setting [1] is: T/C endpoint: mean survival time, dose: 100.0 mg/kg/injection, schedule: Q04DX003 (ip), vehicle: saline.
Where [2] appears, read: T/C endpoint: mean survival time, dose: 200.0 mg/kg/injection, schedule: Q04DX003 (ip), vehicle: saline.
[3] abbreviates: T/C endpoint: mean survival time, dose: 400.0 mg/kg/injection, schedule: Q04DX003 (ip), vehicle: saline.
Setting [4] is: T/C endpoint: mean survival time, dose: 400.0 mg/kg/injection, schedule: Q01DX001 (ip), vehicle: saline with Tween-80.
Setting [5] is: T/C endpoint: mean survival time, dose: 200.0 mg/kg/injection, schedule: Q01DX009 (ip), vehicle: saline with Tween-80.
The mark [6] stands for this setting: T/C endpoint: mean survival time, dose: 400.0 mg/kg/injection, schedule: Q01DX009 (ip), vehicle: saline with Tween-80.
The mark [7] stands for this setting: T/C endpoint: median survival time, dose: 100.0 mg/kg/injection, schedule: Q01DX009 (ip), vehicle: saline with Tween-80.
The mark [8] stands for this setting: T/C endpoint: mean survival time, dose: 300.0 mg/kg/injection, schedule: Q01DX001 (ip), vehicle: saline.
Where [9] appears, read: T/C endpoint: mean survival time, dose: 200.0 mg/kg/injection, schedule: Q04DX003 (ip), vehicle: saline with Tween-80.
Setting [10] is: T/C endpoint: mean survival time, dose: 400.0 mg/kg/injection, schedule: Q04DX003 (ip), vehicle: saline with Tween-80.
The mark [11] stands for this setting: T/C endpoint: mean survival time, dose: 400.0 mg/kg/injection, schedule: Q01DX001 (ip), vehicle: saline.
Where [12] appears, read: T/C endpoint: mean survival time, dose: 400.0 mg/kg/injection, schedule: Q01DX009 (ip), vehicle: water.

For `CS(=O)(=O)C(Br)S(C)(=O)=O`, the survivor count runs as follows: under setting [1], 1 of 6; under setting [2], 0 of 6; under setting [3], 0 of 6.

As to `CCOc1ccc(-n2c(O)c(N=Nc3ccccc3OC)c(=O)n(-c3ccccc3)c2=S)cc1`, under setting [4], the survivor count is given as 3 of 6.

Turning to `C=C1CC2CCC1C2` (configuration not stated), the survivor count under setting [5] was 5 of 6 and the survivor count under setting [6] is reported as 3 of 6.

As for `NCCOC(=O)/C=C/c1ccccc1`, where the note is “T/C endpoint: mean survival time, dose: 400.0 mg/kg/injection, schedule: Q01DX009 (ip), vehicle: saline”, the survivor count is listed as 3 of 6.

As for `NC(C(=O)O)c1ccc(CBr)cc1` (configuration not stated), the survivor count was 3 of 6 (T/C endpoint: median survival time, dose: 25.0 mg/kg/injection, schedule: Q01DX009 (ip), vehicle: saline with Tween-80); 2 of 6 and 3 of 6 under setting [7]; 0 of 6 and 1 of 6 (T/C endpoint: median survival time, dose: 200.0 mg/kg/injection, schedule: Q01DX009 (ip), vehicle: saline with Tween-80). Moreover, the T/C (T/C endpoint: median survival time, dose: 50.0 mg/kg/injection, schedule: Q01DX009 (ip), vehicle: saline with Tween-80) is 135 % of control.

Turning to `N#CCCCCCCN=[N+]=[N-]`, the survivor count under setting [8] was 1 of 6.

`C/C=C/CNc1ccc(C)cc1`: the survivor count under setting [9] is on record as 2 of 6 and the survivor count under setting [10] was 2 of 6.

Consider `Nc1nc(=S)c2ncn(C3C=CC(O)C(CO)O3)c2[nH]1` (configuration not stated), for which the T/C by setting is: (T/C endpoint: mean survival time, dose: 178.0 mg/kg/injection, schedule: Q01DX001 (ip), vehicle: saline) 129 % of control; (T/C endpoint: mean survival time, dose: 267.0 mg/kg/injection, schedule: Q01DX001 (ip), vehicle: saline) 138 % of control; under setting [11], 129 % of control; (T/C endpoint: mean survival time, dose: 600.0 mg/kg/injection, schedule: Q01DX001 (ip), vehicle: saline) 127 % of control.

Take `O=C1C2CCCC3CCCC(C(=O)N1NC1CCCCC1)C32` (configuration not stated): the survivor count is, setting by setting: (T/C endpoint: mean survival time, dose: 50.0 mg/kg/injection, schedule: Q01DX009 (ip), vehicle: saline with Tween-80) 3 of 3; under setting [5], 3 of 3.

As to `O=c1cc(O)cnn1C1OC(CO)C(O)C1O` (configuration not stated), the T/C by setting is: (T/C endpoint: mean survival time, dose: 200.0 mg/kg/injection, schedule: Q01DX009 (ip), vehicle: water) 132 % of control; under setting [12], 132 % of control. Further, the survivor count under setting [12] was 1 of 6.

With `c1cnc(N2CC2)nn1`, the T/C under setting [11] was 125 % of control.

Consider `COC1=C(N2CC2)C(=O)C(OC)=C(N2CC2)C1=O`, for which the T/C (T/C endpoint: mean survival time, dose: 2.0 mg/kg/injection, schedule: Q01DX015 (ip), vehicle: saline) is 136 % of control.

Take `NC(=O)C1OC(n2cnc3c(N)ncnc32)C(O)C1O` (configuration not stated): the survivor count is 0 of 6 (T/C endpoint: mean survival time, dose: 100.0 mg/kg/injection, schedule: Q01DX005 (ip), vehicle: saline) and 0 of 6 (T/C endpoint: mean survival time, dose: 200.0 mg/kg/injection, schedule: Q01DX005 (ip), vehicle: saline).

As to `CCN(CC)CC(=O)Nc1c(C)cccc1C`, the survivor count under setting [9] is recorded as 4 of 6 and the survivor count under setting [10] is recorded as 0 of 6.

Take `CNCC(O)c1ccc(O)c(O)c1.[Pt].c1ccc([PH+](c2ccccc2)c2ccccc2)cc1.c1ccc([PH+](c2ccccc2)c2ccccc2)cc1`: the survivor count reads like this: (T/C endpoint: median survival time, dose: 200.0 mg/kg/injection, schedule: Q04DX003 (ip), vehicle: saline with Tween-80) 6 of 6; (T/C endpoint: median survival time, dose: 400.0 mg/kg/injection, schedule: Q04DX003 (ip), vehicle: saline with Tween-80) 5 of 6.

Consider `CC[C@@]1(O)C[C@H](OC2CC(N(C)C)C(OC3CC(O)C(OC4CCC(=O)C(C)O4)C(C)O3)C(C)O2)c2c(cc3c(c2O)C(=O)c2c(O)ccc(O)c2C3=O)[C@H]1C(=O)OC` (some centres not stated), for which the T/C was 132 and 133 % of control [5 of 6 alive] (T/C endpoint: mean survival time, dose: 1.0 mg/kg/injection, schedule: Q01DX009 (ip), vehicle: water); 142 % of control (T/C endpoint: mean survival time, dose: 2.0 mg/kg/injection, schedule: Q01DX009 (ip), vehicle: water). Further, the survivor count (T/C endpoint: mean survival time, dose: 4.0 mg/kg/injection, schedule: Q01DX009 (ip), vehicle: water) was 4 of 6 and 5 of 6; the survivor count (T/C endpoint: mean survival time, dose: 8.0 mg/kg/injection, schedule: Q01DX009 (ip), vehicle: water) is 2 of 6 and 3 of 6.

Consider `Nc1ncnc2c1ccn2C1OC(CO)C(O)C1O` (configuration not stated), for which the T/C is, setting by setting: (T/C endpoint: mean survival time, dose: 2.0 mg/kg/injection, schedule: Q01DX001 (ip), vehicle: carboxymethylcellulose (CMC)) 127 % of control; (T/C endpoint: mean survival time, dose: 4.0 mg/kg/injection, schedule: Q#A X002 (ip), vehicle: carboxymethylcellulose (CMC)) 127 % of control. Further, the survivor count was 3 of 6 and 6 of 6 (T/C endpoint: mean survival time, dose: 2.0 mg/kg/injection, schedule: Q01DX009 (ip), vehicle: saline); 6 of 6 (T/C endpoint: mean survival time, dose: 4.0 mg/kg/injection, schedule: Q01DX009 (ip), vehicle: saline); 4 of 6 (T/C endpoint: mean survival time, dose: 5.0 mg/kg/injection, schedule: Q01DX009 (ip), vehicle: saline); 9 of 10 (T/C endpoint: median survival time, dose: 1.0 mg/kg/injection, schedule: Q03HX024 (ip), vehicle: other); 10 of 10 (T/C endpoint: median survival time, dose: 2.0 mg/kg/injection, schedule: Q01DX009 (ip), vehicle: other); 2 of 10 (T/C endpoint: median survival time, dose: 2.0 mg/kg/injection, schedule: Q03HX008 (ip), vehicle: other). Also, the survivor count runs as follows: (T/C endpoint: median survival time, dose: 2.0 mg/kg/injection, schedule: Q03HX016 (ip), vehicle: other) 1 of 10; (T/C endpoint: median survival time, dose: 4.0 mg/kg/injection, schedule: Q01DX009 (ip), vehicle: other) 10 of 10; (T/C endpoint: median survival time, dose: 16.0 mg/kg/injection, schedule: Q01DX001 (ip), vehicle: other) 2 of 10; (T/C endpoint: median survival time, dose: 16.0 mg/kg/injection, schedule: Q01DX001 (sc), vehicle: other) 10 of 10; (T/C endpoint: median survival time, dose: 16.0 mg/kg/injection, schedule: Q08DX002 (ip), vehicle: other) 3 of 10.

`O=C(C[n+]1cc2ccccc2cc1Cl)c1ccccc1`: the survivor count (T/C endpoint: mean survival time, dose: 400.0 mg/kg/injection, schedule: Q04DX003 (ip), vehicle: Klucel (hydroxypropylcellulose) (HPC)) is 4 of 6.

Regarding `O=C1NCCCS1(=O)=O`, the survivor count is 1 of 6 (T/C endpoint: mean survival time, dose: 150.0 mg/kg/injection, schedule: Q01DX001 (ip), vehicle: saline) and 0 of 6 under setting [8].

With `COc1cc2c[n+](C)c3c(c2cc1OC)Cc1cc2c(cc1-3)OCO2`, the T/C is, setting by setting: (T/C endpoint: median survival time, dose: 6.25 mg/kg/injection, schedule: Q01DX009 (ip), vehicle: saline with Tween-80) 141 % of control; (T/C endpoint: median survival time, dose: 12.0 mg/kg/injection, schedule: Q01DX009 (ip), vehicle: saline with Tween-80) 138 % of control; (T/C endpoint: median survival time, dose: 12.5 mg/kg/injection, schedule: Q01DX009 (ip), vehicle: saline with Tween-80) 144 % of control. For the same molecule, the survivor count under setting [7] is reported as 6 of 6.

`CC([NH-])C(=O)O.[Cl][Pt][Cl]` (configuration not stated): the survivor count runs as follows: under setting [1], 0 of 6; under setting [2], 0 of 6; under setting [3], 0 of 6.

On to `NNC(N)=S`, for which the survivor count runs as follows: (T/C endpoint: mean survival time, dose: 100.0 mg/kg/injection, schedule: Q04DX003 (ip), vehicle: saline with Tween-80) 0 of 6; under setting [9], 0 of 6; under setting [10], 0 of 6.

On to `O=C(CNC(=O)Nc1cccc(C(F)(F)F)c1)NNC(=O)Nc1ccc(Cl)c([N+](=O)[O-])c1`, for which, under setting [6], the survivor count was 2 of 6.

For the molecule `C(/C=C\c1ccccc1)=C(/C=C/c1ccccc1)/C=C/c1ccccc1`, for the setting “T/C endpoint: mean survival time, dose: 100.0 mg/kg/injection, schedule: Q01DX001 (ip), vehicle: saline with Tween-80”, the survivor count was 6 of 6.

As to `CC(=O)OC1CC2(O)C3CCC4CC(O)CCC4(C)C3CCC2(C)C1C1=CC(=O)OC1` (configuration not stated), under setting [4], the survivor count was 2 of 6.

For the molecule `CC(=O)C(CCN(C)C)(c1ccccc1)c1ccccc1`, the survivor count under setting [8] is listed as 0 of 6.

Turning to `CCCCCCCCCCCCCCCCCCN` (tested in a mixture with another compound), the survivor count (T/C endpoint: mean survival time, dose: 400.0 mg/kg/injection, schedule: Q04DX002 (ip), vehicle: saline with Tween-80) was 1 of 3.

Consider `CN/N=C/c1ccc(O)c(OC)c1`, for which, under setting [6], the survivor count is listed as 2 of 6.
